According to article PMC3984710:

Biological target: T1, Miz-1/GFP (Myc-interacting zinc finger protein 1) (UniProt Q13105)
T1 sequence: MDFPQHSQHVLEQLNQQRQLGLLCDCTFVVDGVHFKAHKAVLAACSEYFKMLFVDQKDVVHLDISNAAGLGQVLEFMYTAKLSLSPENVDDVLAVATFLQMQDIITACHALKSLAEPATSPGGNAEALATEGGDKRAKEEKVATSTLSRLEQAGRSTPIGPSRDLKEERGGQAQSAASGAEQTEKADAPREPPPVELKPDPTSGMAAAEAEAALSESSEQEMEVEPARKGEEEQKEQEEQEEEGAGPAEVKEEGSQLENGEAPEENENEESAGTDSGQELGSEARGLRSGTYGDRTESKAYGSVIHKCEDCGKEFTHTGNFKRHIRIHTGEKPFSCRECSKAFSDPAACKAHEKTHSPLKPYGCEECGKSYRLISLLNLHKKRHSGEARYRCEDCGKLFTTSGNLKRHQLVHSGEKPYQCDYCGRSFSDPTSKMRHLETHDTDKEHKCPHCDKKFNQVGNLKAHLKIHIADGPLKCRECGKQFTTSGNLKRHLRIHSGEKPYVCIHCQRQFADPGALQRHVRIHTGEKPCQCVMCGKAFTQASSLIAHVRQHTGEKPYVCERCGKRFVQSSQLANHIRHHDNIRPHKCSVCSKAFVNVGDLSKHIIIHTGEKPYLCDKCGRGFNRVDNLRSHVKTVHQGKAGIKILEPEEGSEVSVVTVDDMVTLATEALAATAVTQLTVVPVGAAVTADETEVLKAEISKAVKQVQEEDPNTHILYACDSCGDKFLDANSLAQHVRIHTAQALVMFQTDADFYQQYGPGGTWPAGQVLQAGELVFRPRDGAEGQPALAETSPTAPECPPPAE
Experiment: co-IP; Cos-1 cells co-transfected with Miz-1/GFP and Arnt/Flag variants; whole cell extract (25 mM Hepes, 100 mM NaCl, 5 mM EDTA, 0.5% Triton, 20% glycerol); IP with anti-GFP on Protein G agarose overnight at 4°C, immunoblot with anti-Flag

binding: binds
Substance: Arnt/Flag lacking the PAS domain (from UniProt P27540-2)

Results are given in words; binding and its absence hold for the method and conditions named. Binding seen in cells or lysates may run through a third protein. Binding can be weak; no strength is given. Tags and fused reporters may be left off the sequences shown.
